{"source": "patent US9828412B2", "about": "(SOUTHERN MEDICAL UNIVERSITY, priority 2014, dated 2017)", "test": "peptide made by a vendor (Fmoc solid-phase peptide synthesis)", "conditions": "whole synthesis, reversed-phase HPLC", "data": [{"substance": "N′-Arg-Lys-Lys-Asn-Lys-Pro-Pro-Pro-Pro-Lys-Lys-NH2-C′", "values": [{"measurement": "final HPLC purity", "result": 98.9, "unit": "%"}]}]}
